{"source": "PubChem BioAssay AID1224829 (NIAID, 2016)", "aim": "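Secondary check of hits that alter LPS-induced p65 translocation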 (follow-up of hits)", "system": "mouse RAW264.7 G9 macrophage reporter cells", "reagent": "single siRNA against mouse genes, 100 nM", "time to read-out": "2 days of siRNA knock-down, then 40 min of LPS before fixing", "treatment": "LPS (Salmonella minnesota R595) at 10 ng/ml", "detection": "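High-content images after 40 min LPS exposure; GFP-p65 nucleus to surrounding ring signal ratio, normalised to plate median and non-targeting control wells, expressed as z-score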", "reading the numbers": "p65 translocation z-score: higher = more nuclear NF-kappaB p65 after LPS", "rule for the call": "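An siRNA is called active when the mean z-score of its two replicates is above 2 or below -2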", "meaning of the calls": "active = changed p65 translocation (either direction); inactive = no clear change", "note": "In all, the deposit lists about 3,800 reagents; below is a part drawn at random. 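Calls cover raised and lowered translocation; gene median uses one vendor's three siRNAs; qiagen siRNAs acted more weakly than ambion siRNAs.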 Reagents against one gene are numbered here. Further read-outs or replicates are left out here. No sequences are given here."}
{"gene knocked down": "Pwp2 (PWP2 periodic tryptophan protein homolog (yeast))", "siRNA no.": 1, "siRNA vendor or control pool": "ambion single siRNA", "p65 translocation z-score, replicate mean": -2.32, "call": "active"}
{"gene knocked down": "Pwp2 (PWP2 periodic tryptophan protein homolog (yeast))", "siRNA no.": 2, "siRNA vendor or control pool": "ambion single siRNA", "p65 translocation z-score, replicate mean": -1.62, "call": "inactive"}
{"gene knocked down": "Pwp2 (PWP2 periodic tryptophan protein homolog (yeast))", "siRNA no.": 3, "siRNA vendor or control pool": "ambion single siRNA", "p65 translocation z-score, replicate mean": -4.1, "call": "active"}
{"gene knocked down": "Pwp2 (PWP2 periodic tryptophan protein homolog (yeast))", "siRNA no.": 4, "siRNA vendor or control pool": "qiagen single siRNA", "p65 translocation z-score, replicate mean": 2.01, "call": "active"}
{"gene knocked down": "Pwp2 (PWP2 periodic tryptophan protein homolog (yeast))", "siRNA no.": 5, "siRNA vendor or control pool": "qiagen single siRNA", "p65 translocation z-score, replicate mean": -1.04, "call": "inactive"}
{"gene knocked down": "Pwp2 (PWP2 periodic tryptophan protein homolog (yeast))", "siRNA no.": 6, "siRNA vendor or control pool": "qiagen single siRNA", "p65 translocation z-score, replicate mean": -1.06, "call": "inactive"}
{"gene knocked down": "Nfe2l2 (nuclear factor, erythroid derived 2, like 2)", "siRNA no.": 1, "siRNA vendor or control pool": "ambion single siRNA", "p65 translocation z-score, replicate mean": -0.374, "call": "inactive"}
{"gene knocked down": "Nfe2l2 (nuclear factor, erythroid derived 2, like 2)", "siRNA no.": 2, "siRNA vendor or control pool": "ambion single siRNA", "p65 translocation z-score, replicate mean": -0.65, "call": "inactive"}
{"gene knocked down": "Nfe2l2 (nuclear factor, erythroid derived 2, like 2)", "siRNA no.": 3, "siRNA vendor or control pool": "ambion single siRNA", "p65 translocation z-score, replicate mean": -0.898, "call": "inactive"}
{"gene knocked down": "Nfe2l2 (nuclear factor, erythroid derived 2, like 2)", "siRNA no.": 4, "siRNA vendor or control pool": "qiagen single siRNA", "p65 translocation z-score, replicate mean": -3.11, "call": "active"}
{"gene knocked down": "Nfe2l2 (nuclear factor, erythroid derived 2, like 2)", "siRNA no.": 5, "siRNA vendor or control pool": "qiagen single siRNA", "p65 translocation z-score, replicate mean": -1.43, "call": "inactive"}
{"gene knocked down": "Nfe2l2 (nuclear factor, erythroid derived 2, like 2)", "siRNA no.": 6, "siRNA vendor or control pool": "qiagen single siRNA", "p65 translocation z-score, replicate mean": -3.77, "call": "active"}
{"gene knocked down": "Fam221b (family with sequence similarity 221, member B)", "siRNA no.": 1, "siRNA vendor or control pool": "ambion single siRNA", "p65 translocation z-score, replicate mean": -2.2, "call": "active"}
{"gene knocked down": "Fam221b (family with sequence similarity 221, member B)", "siRNA no.": 2, "siRNA vendor or control pool": "ambion single siRNA", "p65 translocation z-score, replicate mean": -0.948, "call": "inactive"}
{"gene knocked down": "Fam221b (family with sequence similarity 221, member B)", "siRNA no.": 3, "siRNA vendor or control pool": "ambion single siRNA", "p65 translocation z-score, replicate mean": -1.05, "call": "inactive"}
{"gene knocked down": "Fam221b (family with sequence similarity 221, member B)", "siRNA no.": 4, "siRNA vendor or control pool": "qiagen single siRNA", "p65 translocation z-score, replicate mean": 1.34, "call": "inactive"}
{"gene knocked down": "Fam221b (family with sequence similarity 221, member B)", "siRNA no.": 5, "siRNA vendor or control pool": "qiagen single siRNA", "p65 translocation z-score, replicate mean": -0.306, "call": "inactive"}
{"gene knocked down": "Fam221b (family with sequence similarity 221, member B)", "siRNA no.": 6, "siRNA vendor or control pool": "qiagen single siRNA", "p65 translocation z-score, replicate mean": 1.26, "call": "inactive"}
{"gene knocked down": "Plpp1 (phospholipid phosphatase 1)", "siRNA no.": 1, "siRNA vendor or control pool": "ambion single siRNA", "p65 translocation z-score, replicate mean": -0.191, "call": "inactive"}
{"gene knocked down": "Plpp1 (phospholipid phosphatase 1)", "siRNA no.": 2, "siRNA vendor or control pool": "ambion single siRNA", "p65 translocation z-score, replicate mean": -3.56, "call": "active"}
{"gene knocked down": "Plpp1 (phospholipid phosphatase 1)", "siRNA no.": 3, "siRNA vendor or control pool": "ambion single siRNA", "p65 translocation z-score, replicate mean": -1.47, "call": "inactive"}
{"gene knocked down": "Plpp1 (phospholipid phosphatase 1)", "siRNA no.": 4, "siRNA vendor or control pool": "qiagen single siRNA", "p65 translocation z-score, replicate mean": -0.388, "call": "inactive"}
{"gene knocked down": "Plpp1 (phospholipid phosphatase 1)", "siRNA no.": 5, "siRNA vendor or control pool": "qiagen single siRNA", "p65 translocation z-score, replicate mean": -2.33, "call": "active"}
{"gene knocked down": "Plpp1 (phospholipid phosphatase 1)", "siRNA no.": 6, "siRNA vendor or control pool": "qiagen single siRNA", "p65 translocation z-score, replicate mean": -3.05, "call": "active"}
